Source: doi:10.1101/2021.03.20.435662
No constants are given. Whether binding was seen depends on the method and setting. Some results given as binding are weak or reduced against the parent protein; the word gives no strength. Tags and fused reporters may be left off the sequences shown.

T1: KAKU4 N-terminus (1-310), yeast two-hybrid fusion (Arabidopsis thaliana) (UniProt Q949W6)
T1 sequence: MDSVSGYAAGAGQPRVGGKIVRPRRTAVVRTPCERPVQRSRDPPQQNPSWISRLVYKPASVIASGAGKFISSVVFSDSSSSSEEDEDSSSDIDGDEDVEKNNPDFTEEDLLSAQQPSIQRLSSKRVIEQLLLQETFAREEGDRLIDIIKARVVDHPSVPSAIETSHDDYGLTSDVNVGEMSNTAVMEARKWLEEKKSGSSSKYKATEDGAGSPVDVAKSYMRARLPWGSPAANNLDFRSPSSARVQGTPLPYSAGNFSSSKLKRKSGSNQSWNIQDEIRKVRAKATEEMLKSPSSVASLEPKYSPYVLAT

T2: CROWDED NUCLEI 2 (CRWN2), yeast two-hybrid fusion (Arabidopsis thaliana) (UniProt Q9SAF6)
T2 sequence: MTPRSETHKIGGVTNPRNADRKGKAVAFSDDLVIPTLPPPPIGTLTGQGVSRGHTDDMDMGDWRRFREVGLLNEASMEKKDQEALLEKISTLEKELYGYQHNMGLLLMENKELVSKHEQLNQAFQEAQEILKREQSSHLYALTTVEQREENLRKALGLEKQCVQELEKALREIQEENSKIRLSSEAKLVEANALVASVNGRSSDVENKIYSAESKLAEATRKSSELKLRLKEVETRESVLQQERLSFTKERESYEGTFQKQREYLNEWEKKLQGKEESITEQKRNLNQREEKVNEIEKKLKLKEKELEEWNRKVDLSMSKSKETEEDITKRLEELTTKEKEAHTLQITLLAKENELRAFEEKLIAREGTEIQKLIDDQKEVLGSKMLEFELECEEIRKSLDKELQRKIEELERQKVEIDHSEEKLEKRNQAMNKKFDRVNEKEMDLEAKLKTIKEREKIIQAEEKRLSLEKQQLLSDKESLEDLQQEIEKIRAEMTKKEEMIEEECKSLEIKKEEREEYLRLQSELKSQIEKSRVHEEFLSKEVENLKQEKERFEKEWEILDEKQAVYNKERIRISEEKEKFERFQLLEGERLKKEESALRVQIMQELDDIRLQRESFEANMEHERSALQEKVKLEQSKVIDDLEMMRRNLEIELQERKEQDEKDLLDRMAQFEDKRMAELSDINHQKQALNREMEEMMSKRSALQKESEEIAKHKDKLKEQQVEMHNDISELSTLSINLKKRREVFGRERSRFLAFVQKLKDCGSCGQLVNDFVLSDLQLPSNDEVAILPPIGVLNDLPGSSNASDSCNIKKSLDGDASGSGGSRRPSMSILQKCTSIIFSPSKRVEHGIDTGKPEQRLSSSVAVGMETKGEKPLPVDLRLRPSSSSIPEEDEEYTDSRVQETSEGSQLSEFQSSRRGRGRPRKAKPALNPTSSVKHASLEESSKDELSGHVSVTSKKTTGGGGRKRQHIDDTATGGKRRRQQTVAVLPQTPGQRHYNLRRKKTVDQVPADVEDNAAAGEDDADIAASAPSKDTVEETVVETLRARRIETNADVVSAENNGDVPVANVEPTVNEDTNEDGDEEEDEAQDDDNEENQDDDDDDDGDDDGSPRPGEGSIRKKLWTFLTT

T3: CROWDED NUCLEI 1 (CRWN1), yeast two-hybrid fusion (Arabidopsis thaliana) (UniProt F4HRT5)
T3 sequence: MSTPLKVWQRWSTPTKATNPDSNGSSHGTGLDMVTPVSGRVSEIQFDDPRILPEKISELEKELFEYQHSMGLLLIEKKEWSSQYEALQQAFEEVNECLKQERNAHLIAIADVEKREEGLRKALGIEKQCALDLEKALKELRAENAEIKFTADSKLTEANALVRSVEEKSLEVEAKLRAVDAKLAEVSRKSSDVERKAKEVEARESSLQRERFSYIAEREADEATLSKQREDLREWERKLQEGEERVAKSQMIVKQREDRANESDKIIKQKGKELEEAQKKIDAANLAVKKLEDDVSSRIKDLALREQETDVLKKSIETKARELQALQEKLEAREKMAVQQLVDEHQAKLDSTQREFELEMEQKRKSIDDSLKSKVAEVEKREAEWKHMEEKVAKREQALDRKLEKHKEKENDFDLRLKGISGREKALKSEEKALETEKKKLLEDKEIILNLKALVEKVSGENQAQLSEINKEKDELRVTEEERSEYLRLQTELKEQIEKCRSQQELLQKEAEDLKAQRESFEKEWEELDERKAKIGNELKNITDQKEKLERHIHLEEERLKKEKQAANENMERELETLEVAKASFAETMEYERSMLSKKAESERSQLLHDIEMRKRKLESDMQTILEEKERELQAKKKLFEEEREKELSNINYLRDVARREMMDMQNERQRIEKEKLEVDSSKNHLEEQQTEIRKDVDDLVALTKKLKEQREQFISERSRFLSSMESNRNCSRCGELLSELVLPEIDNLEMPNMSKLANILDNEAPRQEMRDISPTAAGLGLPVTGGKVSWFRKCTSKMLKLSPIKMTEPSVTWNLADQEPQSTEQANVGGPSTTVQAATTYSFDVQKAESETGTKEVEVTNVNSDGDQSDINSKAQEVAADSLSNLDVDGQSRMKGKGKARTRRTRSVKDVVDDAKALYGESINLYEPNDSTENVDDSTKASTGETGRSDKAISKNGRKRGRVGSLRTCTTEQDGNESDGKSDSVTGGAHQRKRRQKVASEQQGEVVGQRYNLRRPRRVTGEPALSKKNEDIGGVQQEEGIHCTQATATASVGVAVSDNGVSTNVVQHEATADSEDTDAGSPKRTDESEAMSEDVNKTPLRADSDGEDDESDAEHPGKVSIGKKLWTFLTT

T4: CROWDED NUCLEI 3 (CRWN3), yeast two-hybrid fusion (Arabidopsis thaliana) (UniProt Q9CA42)
T4 sequence: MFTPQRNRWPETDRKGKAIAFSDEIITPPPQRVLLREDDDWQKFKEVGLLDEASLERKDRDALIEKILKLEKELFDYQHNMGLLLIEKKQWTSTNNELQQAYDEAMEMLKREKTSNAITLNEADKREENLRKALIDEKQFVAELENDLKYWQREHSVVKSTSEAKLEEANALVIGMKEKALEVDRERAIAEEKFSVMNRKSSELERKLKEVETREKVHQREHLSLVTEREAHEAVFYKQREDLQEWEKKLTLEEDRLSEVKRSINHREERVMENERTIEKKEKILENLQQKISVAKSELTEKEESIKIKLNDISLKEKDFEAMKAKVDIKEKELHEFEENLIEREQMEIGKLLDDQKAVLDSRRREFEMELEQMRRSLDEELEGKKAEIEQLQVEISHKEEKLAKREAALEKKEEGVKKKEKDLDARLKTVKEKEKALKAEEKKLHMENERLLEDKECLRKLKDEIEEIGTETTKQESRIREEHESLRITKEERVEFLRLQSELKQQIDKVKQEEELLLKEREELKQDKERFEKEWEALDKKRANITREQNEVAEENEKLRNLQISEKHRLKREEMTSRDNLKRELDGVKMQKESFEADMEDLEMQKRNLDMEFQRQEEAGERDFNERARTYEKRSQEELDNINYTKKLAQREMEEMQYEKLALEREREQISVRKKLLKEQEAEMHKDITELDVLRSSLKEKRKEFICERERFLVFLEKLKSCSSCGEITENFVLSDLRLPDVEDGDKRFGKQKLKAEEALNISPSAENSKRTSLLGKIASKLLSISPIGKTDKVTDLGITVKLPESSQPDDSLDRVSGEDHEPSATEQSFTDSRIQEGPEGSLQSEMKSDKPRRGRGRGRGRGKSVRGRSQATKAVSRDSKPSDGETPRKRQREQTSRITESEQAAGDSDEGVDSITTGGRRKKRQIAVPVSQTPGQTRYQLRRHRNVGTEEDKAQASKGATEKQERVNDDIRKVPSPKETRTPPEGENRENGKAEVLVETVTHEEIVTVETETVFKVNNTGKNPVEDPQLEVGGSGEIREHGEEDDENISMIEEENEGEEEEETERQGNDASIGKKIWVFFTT


Assays:
Experiment in all cases: two-hybrid
[1] = target: T1, KAKU4 N-terminus (1-310), yeast two-hybrid fusion (Arabidopsis thaliana)
[2] = target: T2, CROWDED NUCLEI 2 (CRWN2), yeast two-hybrid fusion (Arabidopsis thaliana)
[3] = target: T3, CROWDED NUCLEI 1 (CRWN1), yeast two-hybrid fusion (Arabidopsis thaliana)
[4] = target: T4, CROWDED NUCLEI 3 (CRWN3), yeast two-hybrid fusion (Arabidopsis thaliana)

binding [1]	binding [2]	binding [3]	binding [4]	Binder
binds				SKRVIEQLLLQETFAREEGDRLIDIIKARVVDH (domain or fragment, UniProt Q949W6-2 123-155) [KAKU4 M1 motif alone, yeast two-hybrid fusion]
no binding				KAKU4 protein deleted of M1, yeast two-hybrid fusion (protein, UniProt Q949W6-2) MDSVSGYAAGAGQPRVGGKIVRPRRTAVVRTPCERPVQRSRDPPQQNPSWISRLVYKPASVIASGAGKFISSVVFSDSSSSSEEDEDSSSDIDGDEDVEKNNPDFTEEDLLSAQQPSIQRLSPSVPSAIETSHDDYGLTSDVNVGEMSNTAVMEARKWLEEKKSGSSSKYKATEDGAGSPVDVAKSYMRARLPWGSPAANNLDFRSPSSARVQGTPLPYSAGNFSSSKLKRKSGSNQSWNIQDEIRKVRAKATEEMLKSPSSVASLEPKYSPYVLATDMLKGNASSLNADGAVRNEQSRALPNSAIPTSEHNQTTEANQAVKETGVLHTRSRGVGLEETFISTQGVKPSEDTNTAPQSGTAVDDFNDQDGDFIQPTSTIGNTTNAVLALGATLDPTGNSCIPKDVFETSKEADEIGASRHTSNGFPSSSPSSPAVMEGQPKPTPPEETKASQPIAEIHGDDMTVGNGSDGAINNESNDSHSSASNSSSTHEEEWLPGDQSLPNSNSASSSPGNTKVLAYSRRGRGRGRGRGRGGRGKGRAK
	binds	binds	binds	GAGSPVDVAKSYMRARLPWGSPAANNLDF (domain or fragment, UniProt Q949W6-2 209-237) [KAKU4 M2 motif alone, yeast two-hybrid fusion]
